In the supplement of paper PMC6411743:
± gives the standard deviation of the averaged measurements. The list shows a part of the results, in another mix than the full data.

How the values were obtained:
Assay in all cases: NP40-soluble protein abundance relative to vehicle (solubility fold change) (ratio); higher = more soluble protein in presence of ATP
[1] = target: T1, UniProt O15123 and related entries
T1 sequence (whole entry): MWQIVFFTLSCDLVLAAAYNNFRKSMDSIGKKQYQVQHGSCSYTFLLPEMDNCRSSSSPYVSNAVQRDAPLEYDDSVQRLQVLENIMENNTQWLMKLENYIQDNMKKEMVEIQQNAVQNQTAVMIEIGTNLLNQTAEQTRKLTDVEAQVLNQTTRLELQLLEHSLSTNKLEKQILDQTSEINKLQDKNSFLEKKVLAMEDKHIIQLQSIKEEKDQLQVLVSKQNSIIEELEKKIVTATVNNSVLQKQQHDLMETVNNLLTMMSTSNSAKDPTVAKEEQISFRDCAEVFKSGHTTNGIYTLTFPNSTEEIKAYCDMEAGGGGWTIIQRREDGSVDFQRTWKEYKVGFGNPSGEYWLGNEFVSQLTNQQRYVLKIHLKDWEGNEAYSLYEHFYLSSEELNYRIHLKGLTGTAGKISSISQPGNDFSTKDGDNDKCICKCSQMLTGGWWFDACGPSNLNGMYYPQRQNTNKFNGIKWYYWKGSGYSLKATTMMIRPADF
Outline: (§1)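 Data come from three independent experiments in which Dounce-homogenised Jurkat crude lysate was treated at eight concentrations from 0.1 to 10 mM. Treatment ran 10 min at room temperature and then 3 min at 37 °C, after which 0.8% NP40 and benzonase were added for 60 min at 4 °C before ultracentrifugation. The supernatant underwent TMT labelling and LC-MS/MS, and vsn-normalised intensities were expressed as fold change against the detergent-processed vehicle in each replicate.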

[2] = target: T2, UniProt O15173 and related entries
T2 sequence (whole entry): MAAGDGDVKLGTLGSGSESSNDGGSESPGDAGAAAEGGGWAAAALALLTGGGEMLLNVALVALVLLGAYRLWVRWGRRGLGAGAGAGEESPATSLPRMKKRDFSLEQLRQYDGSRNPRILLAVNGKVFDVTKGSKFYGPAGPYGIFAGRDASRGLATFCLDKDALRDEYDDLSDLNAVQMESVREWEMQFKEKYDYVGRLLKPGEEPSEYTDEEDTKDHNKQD
Outline: as §1

[3] = target: T3, UniProt O43310 and related entries
T3 sequence (whole entry): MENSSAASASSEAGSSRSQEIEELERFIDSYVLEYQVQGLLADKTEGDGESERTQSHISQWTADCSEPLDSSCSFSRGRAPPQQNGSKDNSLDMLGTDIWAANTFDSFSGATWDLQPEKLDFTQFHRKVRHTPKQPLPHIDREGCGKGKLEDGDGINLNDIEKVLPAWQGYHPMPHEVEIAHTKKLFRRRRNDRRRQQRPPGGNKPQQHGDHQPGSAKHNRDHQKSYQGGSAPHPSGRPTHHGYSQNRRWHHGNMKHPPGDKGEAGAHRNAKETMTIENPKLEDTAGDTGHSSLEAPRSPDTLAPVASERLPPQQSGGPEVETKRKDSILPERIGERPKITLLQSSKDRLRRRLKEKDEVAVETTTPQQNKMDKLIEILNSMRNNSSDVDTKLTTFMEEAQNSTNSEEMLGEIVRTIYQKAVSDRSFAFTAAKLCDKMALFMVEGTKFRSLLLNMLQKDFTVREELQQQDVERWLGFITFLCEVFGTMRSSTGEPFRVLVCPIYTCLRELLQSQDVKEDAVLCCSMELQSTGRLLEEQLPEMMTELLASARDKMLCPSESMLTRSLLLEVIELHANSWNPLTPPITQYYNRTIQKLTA
Outline: as §1

[4] = target: T4, UniProt O43318-2|O43318
T4 sequence (whole entry): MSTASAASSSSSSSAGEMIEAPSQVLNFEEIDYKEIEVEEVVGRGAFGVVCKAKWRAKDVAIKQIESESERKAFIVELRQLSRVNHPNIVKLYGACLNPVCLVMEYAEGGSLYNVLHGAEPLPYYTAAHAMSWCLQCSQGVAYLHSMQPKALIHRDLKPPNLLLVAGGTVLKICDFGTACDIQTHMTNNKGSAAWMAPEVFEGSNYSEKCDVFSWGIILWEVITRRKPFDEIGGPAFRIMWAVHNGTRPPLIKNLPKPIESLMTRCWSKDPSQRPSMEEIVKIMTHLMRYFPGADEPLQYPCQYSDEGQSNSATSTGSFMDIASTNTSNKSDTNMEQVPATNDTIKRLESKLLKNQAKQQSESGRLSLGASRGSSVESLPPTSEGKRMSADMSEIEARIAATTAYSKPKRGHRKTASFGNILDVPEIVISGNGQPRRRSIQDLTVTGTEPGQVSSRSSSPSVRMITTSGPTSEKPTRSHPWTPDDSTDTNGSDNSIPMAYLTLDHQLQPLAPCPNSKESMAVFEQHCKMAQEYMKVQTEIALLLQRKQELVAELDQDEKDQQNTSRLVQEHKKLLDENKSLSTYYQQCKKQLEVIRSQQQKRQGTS
Outline: as §1

[5] = target: T5, UniProt O43586 and related entries
T5 sequence (whole entry): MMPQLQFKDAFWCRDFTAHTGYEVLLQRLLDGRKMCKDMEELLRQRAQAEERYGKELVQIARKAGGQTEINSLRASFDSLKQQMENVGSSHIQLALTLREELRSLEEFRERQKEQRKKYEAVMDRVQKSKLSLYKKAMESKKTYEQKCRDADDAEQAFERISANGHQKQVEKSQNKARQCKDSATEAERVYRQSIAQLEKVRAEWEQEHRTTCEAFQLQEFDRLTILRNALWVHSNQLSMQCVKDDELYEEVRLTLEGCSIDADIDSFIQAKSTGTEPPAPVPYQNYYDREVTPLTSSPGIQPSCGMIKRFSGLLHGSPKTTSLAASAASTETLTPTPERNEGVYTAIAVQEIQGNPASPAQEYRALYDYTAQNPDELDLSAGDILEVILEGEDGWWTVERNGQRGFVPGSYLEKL
Outline: as §1

[6] = target: T6, ZW10 (UniProt O43264)
T6 sequence (whole entry): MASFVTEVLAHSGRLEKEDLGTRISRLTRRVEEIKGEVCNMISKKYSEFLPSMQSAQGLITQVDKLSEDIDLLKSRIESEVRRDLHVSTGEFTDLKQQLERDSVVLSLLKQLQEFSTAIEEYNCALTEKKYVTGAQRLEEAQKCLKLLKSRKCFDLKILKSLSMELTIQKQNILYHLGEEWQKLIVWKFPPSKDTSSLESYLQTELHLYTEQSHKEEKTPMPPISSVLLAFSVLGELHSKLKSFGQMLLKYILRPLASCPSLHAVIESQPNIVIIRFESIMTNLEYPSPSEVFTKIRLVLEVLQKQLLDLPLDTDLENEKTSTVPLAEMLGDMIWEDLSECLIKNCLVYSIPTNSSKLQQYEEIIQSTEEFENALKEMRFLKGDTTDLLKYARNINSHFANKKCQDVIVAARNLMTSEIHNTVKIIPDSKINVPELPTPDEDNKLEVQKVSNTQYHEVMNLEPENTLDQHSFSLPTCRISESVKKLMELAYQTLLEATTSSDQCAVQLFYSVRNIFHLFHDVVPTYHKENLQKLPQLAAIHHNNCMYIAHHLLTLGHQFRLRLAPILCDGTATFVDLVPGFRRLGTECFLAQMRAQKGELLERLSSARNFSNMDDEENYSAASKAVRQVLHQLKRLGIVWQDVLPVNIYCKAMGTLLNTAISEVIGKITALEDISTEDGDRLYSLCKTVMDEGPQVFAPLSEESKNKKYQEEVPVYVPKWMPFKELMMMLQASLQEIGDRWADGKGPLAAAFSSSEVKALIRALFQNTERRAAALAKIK
Outline: as §1

Structure (SMILES): Nc1ncnc2c1ncn2[C@@H]1O[C@H](COP(=O)(O)OP(=O)(O)OP(=O)(O)O)[C@@H](O)[C@H]1O [adenosine triphosphate]
- NP40-soluble protein abundance ([1]; concentration: 6mM): 0.90663 ± 0.00026
- NP40-soluble protein abundance ([1]; concentration: 8mM): 0.816 ± 0.028
- NP40-soluble protein abundance ([1]; concentration: 10mM): 0.774 ± 0.051
- NP40-soluble protein abundance ([2]; concentration: 1mM): 0.923 ± 0.023
- NP40-soluble protein abundance ([2]; concentration: 2mM): 0.926 ± 0.035
- NP40-soluble protein abundance ([2]; concentration: 4mM): 0.928 ± 0.05
- NP40-soluble protein abundance ([2]; concentration: 6mM): 0.853 ± 0.04
- NP40-soluble protein abundance ([2]; concentration: 8mM): 0.885 ± 0.023
- NP40-soluble protein abundance ([2]; concentration: 10mM): 0.835 ± 0.098
- NP40-soluble protein abundance ([3]; concentration: 1mM): 0.927 ± 0.098
- NP40-soluble protein abundance ([3]; concentration: 2mM): 1.02 ± 0.062
- NP40-soluble protein abundance ([3]; concentration: 4mM): 1.02 ± 0.051
- NP40-soluble protein abundance ([3]; concentration: 6mM): 0.971 ± 0.017
- NP40-soluble protein abundance ([3]; concentration: 8mM): 0.975 ± 0.052
- NP40-soluble protein abundance ([3]; concentration: 10mM): 1.01 ± 0.031
- NP40-soluble protein abundance ([4]; concentration: 1mM): 0.955 ± 0.044
- NP40-soluble protein abundance ([4]; concentration: 2mM): 0.965 ± 0.026
- NP40-soluble protein abundance ([4]; concentration: 4mM): 0.946 ± 0.036
- NP40-soluble protein abundance ([4]; concentration: 6mM): 1 ± 0.011
- NP40-soluble protein abundance ([4]; concentration: 8mM): 0.923 ± 0.024
- NP40-soluble protein abundance ([4]; concentration: 10mM): 0.935 ± 0.01
- NP40-soluble protein abundance ([5]; concentration: 1mM): 1.01 ± 0.085
- NP40-soluble protein abundance ([5]; concentration: 2mM): 1.103 ± 0.0054
- NP40-soluble protein abundance ([5]; concentration: 4mM): 1.3 ± 0.31
- NP40-soluble protein abundance ([5]; concentration: 6mM): 1.03 ± 0.051
- NP40-soluble protein abundance ([5]; concentration: 8mM): 1.11 ± 0.054
- NP40-soluble protein abundance ([5]; concentration: 10mM): 1.12 ± 0.092
- NP40-soluble protein abundance ([6]; concentration: 1mM): 1.04 ± 0.026
- NP40-soluble protein abundance ([6]; concentration: 2mM): 1.03 ± 0.012
- NP40-soluble protein abundance ([6]; concentration: 4mM): 1.001 ± 0.0087
- NP40-soluble protein abundance ([6]; concentration: 6mM): 1.01 ± 0.032
- NP40-soluble protein abundance ([6]; concentration: 8mM): 1.02 ± 0.013
- NP40-soluble protein abundance ([6]; concentration: 10mM): 1.01 ± 0.043
